Experimental data reported in patent publication US6452008B2, “Pyridone derivatives and process for preparing the same” (Sumitomo Pharmaceuticals Company, Limited, priority 1998, dated 2002).
For at least one compound, name, drawing or mass did not settle the structure.

Test system: ACAT
Test: Assay of ACAT inhibitory activity in a specimen prepared from rabbit liver
Type: biochemical, New Zealand white rabbit
Settings: rabbit liver microsome enzyme specimen, [1-14C]oleoyl-CoA, endogenous cholesterol

## CCCCn1cc(C)c(-c2cc(C#CCN(CC)CC)ccc2OC)c(NC(=O)Nc2c(C(C)C)cccc2C(C)C)c1=O [Example 18, N-[1-butyl-2-oxo-4-[5-{3-(diethylamino)-1-propynyl}-2-methoxy]phenyl-5-methyl-1,2-dihydropyridin-3-yl]-N′-(2,6-diisopropylphenyl) urea]
  IC50: 295 nM
